Test results taken from publication PMC8321694.
Numbering of substitutions follows the chain as printed. Names may count otherwise. Results are given in words; binding and its absence hold for the method and conditions named. For part of these data: Binding seen in cells or lysates may run through a third protein. Some entries that bind do so weakly or less than the wild type. For part of these data: Sequences can lack the tags named with a protein. Blank lines part the entries; values can stand above or below the molecule they belong to.

Sequences of proteins named here, by UniProt entry; tags and fusion partners are left off.
UniProt P47110: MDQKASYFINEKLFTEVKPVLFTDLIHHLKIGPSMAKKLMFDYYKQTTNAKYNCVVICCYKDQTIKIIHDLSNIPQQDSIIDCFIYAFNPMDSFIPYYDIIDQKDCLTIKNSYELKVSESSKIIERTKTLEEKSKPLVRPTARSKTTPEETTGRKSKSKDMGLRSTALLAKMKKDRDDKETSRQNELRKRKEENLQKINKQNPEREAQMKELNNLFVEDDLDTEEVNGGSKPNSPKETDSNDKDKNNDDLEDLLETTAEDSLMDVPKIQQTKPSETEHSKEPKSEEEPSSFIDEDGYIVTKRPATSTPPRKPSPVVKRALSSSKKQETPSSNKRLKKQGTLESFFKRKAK

Key:
[1] = target: T1, LexA-Pol31-W417A (budding yeast) (UniProt P46957); assay: two-hybrid; LexA bait (pGAL-LexA) and B42 prey (pJG4-7), lacZ reporter pSH18-34; 2% galactose for 6 h; quantitative liquid β-galactosidase assay of cell extracts; pol32Δ strain GA-6292 (no endogenous Pol32)
T1 sequence: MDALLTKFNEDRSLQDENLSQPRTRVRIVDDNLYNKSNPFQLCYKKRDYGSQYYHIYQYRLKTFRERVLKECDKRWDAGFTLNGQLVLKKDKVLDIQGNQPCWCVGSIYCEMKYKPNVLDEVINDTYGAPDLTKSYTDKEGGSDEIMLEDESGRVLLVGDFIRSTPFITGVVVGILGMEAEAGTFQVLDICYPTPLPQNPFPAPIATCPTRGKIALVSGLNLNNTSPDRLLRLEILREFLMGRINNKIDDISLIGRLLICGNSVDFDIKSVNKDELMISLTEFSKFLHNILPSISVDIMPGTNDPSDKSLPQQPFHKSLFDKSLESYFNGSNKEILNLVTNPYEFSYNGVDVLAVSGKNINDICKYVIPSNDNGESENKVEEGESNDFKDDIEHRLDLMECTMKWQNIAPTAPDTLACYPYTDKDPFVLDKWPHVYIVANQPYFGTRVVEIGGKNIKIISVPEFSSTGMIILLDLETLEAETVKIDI

[2] = target: T2, LexA-Pol31-T415A (budding yeast) (UniProt P46957); assay: as above
T2 sequence: T1 sequence with T415A, A417W

[3] = target: T3, LexA-Pol31 (wild-type, full length) (budding yeast) (UniProt P46957); assay: as above
T3 sequence: T1 sequence with A417W

[4] = target: T1, LexA-Pol31-W417A (budding yeast); assay: two-hybrid; LexA bait (pGAL-LexA) and B42 prey (pJG4-7), lacZ reporter pSH18-34; 2% galactose for 6 h; quantitative liquid β-galactosidase assay of cell extracts; wild-type strain GA-1981 (endogenous Pol32 present)
[5] = target: T2, LexA-Pol31-T415A (budding yeast); assay: as above
[6] = target: T3, LexA-Pol31 (wild-type, full length) (budding yeast); assay: as above
[7] = target: T1, LexA-Pol31-W417A (budding yeast); assay: two-hybrid; LexA bait (pGAL-LexA) and B42 prey (pJG4-7), lacZ reporter pSH18-34; 2% galactose for 6 h; quantitative liquid β-galactosidase assay of cell extracts; pol32Δ strain GA-6292 (no endogenous Pol32); remark: listed apart in the source
[8] = target: T3, LexA-Pol31 (wild-type, full length) (budding yeast); assay: as above; remark: listed apart in the source
[9] = target: T4, MBP-Pol3-CTD, CysA + CysB (Pol3 991-1097) (budding yeast) (UniProt P15436); assay: pull-down; E. coli-expressed MBP-Pol3-CTD on Amylose beads; whole yeast cell extracts (wild-type or pol32Δ cells grown at 30°C or 16°C) with over-expressed HA- or LexA-Pol31 derivatives; 1.5 h at 4°C; 50 mM Hepes pH 7.5, 20 mM NaCl, 1 mM EDTA, 0.1% Triton X-100; Western blot; only the target purified
T4 sequence: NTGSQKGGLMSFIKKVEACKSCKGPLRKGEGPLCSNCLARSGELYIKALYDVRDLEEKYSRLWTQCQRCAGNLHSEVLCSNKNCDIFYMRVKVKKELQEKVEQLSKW

B3: HA-Pol31 (wild-type, full-length HA-tagged Pol31) (protein, UniProt P46957 1-487)
chain: T1 sequence with A417W
binding [9]: binds

B4: HA-Pol31-W417A (full length HA-tagged Pol31-W417) (protein, UniProt P46957 1-487)
chain: T1 sequence
binding [9]: binds

B5: LexA-Pol31 (wild-type, full length) (protein, UniProt P46957 1-487)
chain: T1 sequence with A417W
binding [9]: binds

Continued, values first:

binding [1]: binds
binding [2]: binds
binding [3]: binds
binding [4]: binds
binding [5]: binds
binding [6]: binds
Molecule: Pol32 N terminus (aa 1–350), two-hybrid prey (from UniProt P47110 1-350) (domain or fragment)

binding [7]: binds
binding [8]: binds
binding [4]: binds
binding [6]: binds
B1: Pol3 C terminus (991-1097) bearing the paired CysA and CysB domains, two-hybrid prey (domain or fragment, UniProt P15436 991-1097)
chain: T4 sequence

binding [7]: binds
binding [8]: binds
binding [4]: binds
binding [6]: binds
B2: Pol3 CysB domain (1032-1097), two-hybrid prey (domain or fragment, UniProt P15436 1032-1097)
chain: GELYIKALYDVRDLEEKYSRLWTQCQRCAGNLHSEVLCSNKNCDIFYMRVKVKKELQEKVEQLSKW

binding [9]: binds
B6: LexA-Pol31-W417A (protein, UniProt P46957 1-487)
chain: T1 sequence
